Test results: US20090156489A1
No constants are given. Whether binding was seen depends on the method and setting. Some binding calls cover weakened binding; strength is not graded here. Where a sequence is shown, tags or fusion partners need not be part of it.

How the values were obtained:
[1] = target: T1, human Netrin-G1-his (purified Netrin-G1 protein with a C-terminus His tag) (human) (UniProt Q9Y2I2); assay: solution binding assay, protein A bead pull-down, blot
T1 sequence (looked up): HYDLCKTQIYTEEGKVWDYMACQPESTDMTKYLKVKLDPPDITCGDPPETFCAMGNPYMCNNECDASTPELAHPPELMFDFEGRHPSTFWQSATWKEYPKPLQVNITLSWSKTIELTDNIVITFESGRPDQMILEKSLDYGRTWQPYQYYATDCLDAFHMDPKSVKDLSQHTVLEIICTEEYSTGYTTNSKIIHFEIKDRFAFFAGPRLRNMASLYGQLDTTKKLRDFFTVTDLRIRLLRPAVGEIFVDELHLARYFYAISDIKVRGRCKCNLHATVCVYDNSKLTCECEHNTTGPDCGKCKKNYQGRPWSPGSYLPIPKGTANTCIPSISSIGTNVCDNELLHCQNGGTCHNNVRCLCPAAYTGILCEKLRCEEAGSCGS

[2] = target: T1, human Netrin-G1-his (purified Netrin-G1 protein with a C-terminus His tag) (human); assay: solid phase binding assay: Netrin-G1-his coated in microtiter wells, NGL-1-Fc in solution, biotinylated anti-human IgG Fc, streptavidin-HRP, TMB, OD450; specific binding = total minus cMet-Fc binding

binding [1]: binds
binding [2]: binds
B1: human NGL-1-Fc (extracellular domain of human NGL-1 fused to human IgG1 Fc) (Fc fusion, not shown: a dimerising Fc or GST)
chain: QTCPSVCSCSNQFSKVICVRKNLREVPDGISTNTRLLNLHENQIQIIKVNSFKHLRHLEILQLSRNHIRTIEIGAFNGLANLNTLELFDNRLTTIPNGAFVYLSKLKELWLRNNPIESIPSYAFNRIPSLRRLDLGELKRLSYISEGAFEGLSNLRYLNLAMCNLREIPNLTPLIKLDELDLSGNHLSAIRPGSFQGLMHLQKLWMIQSQIQVIERNAFDNLQSLVEINLAHNNLTLLPHDLFTPLHHLERIHLHHNPWNCNCDILWLSWWIKDMAPSNTACCARCNTPPNLKGRYIGELDQNYFTCYAPVIVEPPADLNVTEGMAAELKCRASTSLTSVSWITPNGTVMTHGAYKVRIAVLSDGTLNFTNVTVQDTGMYTCMVSNSVGNTTASATLNVTAATTTPFSYFSTVTVETMEPSQDEARTTDNNVGPTPVVDWETTNVTTSLTPQSTRSTEKTFTIPVTDINSGIPGIDEVMKTTK
